# About 5,400 (1.8%) of roughly 300,000 compounds were called active. The shares of active, inactive and inconclusive entries below differ from those in the screen. Calls come from the whole dose curve; tested in HEK293 cells. Where the call is inconclusive, the potency comes from a doubtful curve fit.
# Experiment: qHTS for inhibitors of binding or entry into cells for Marburg Virus
# Conditions: Marburg virus pseudotyped entry inhibition, cell reporter; series mostly up to 37.8 µM
# Potency is the fitted concentration of half-maximal effect.
row,SMILES,Potency
1,CCOc1ccc(N(CC(=O)NCc2ccc(F)cc2)C(=O)c2ccco2)cc1,"inconclusive: 14.1 µM [inhibitor, single point]"
2,O=c1[nH]cnc2c1c(-c1ccccc1)cn2-c1ccc(F)cc1,"inconclusive: 11.2 µM [inhibitor, single point]"
3,Cc1ccc(NC(=O)CCC(=O)N/N=C/c2cccs2)cc1C,"inconclusive: 6.31 µM [inhibitor, single point]"
4,COc1ccc(-c2cc(C(=O)N(C)CCc3ccc(OC)c(OC)c3)c3ccccc3n2)cc1,"inconclusive: 35.5 µM [inhibitor, single point]"
5,O=C(Nc1ccccc1)c1ccc(CSc2ncccn2)cc1,"inconclusive: 31.6 µM [inhibitor, single point]"
6,Cc1oc(-c2ccc(Cl)cc2)nc1CN1CCCC(C(=O)NCc2ccccc2)C1 (centres undefined),inactive
7,CC(C)c1ccc(NC(=O)COC(=O)COc2ccccc2)cc1,inactive
8,CCc1cc([N+](=O)[O-])cc(CC)c1N,inactive
9,C/C(=C\C(=O)c1ccc(Br)cc1)NNC(=O)c1ccccc1,"inconclusive: 0.631 µM [inhibitor, single point]"
10,CCCCNC(C(=O)Nc1cccc(S(=O)(=O)N2CCOCC2)c1)c1ccccc1 (centres undefined),"inconclusive: 8.91 µM [inhibitor, partial curve, poor fit]"
11,Cc1cc(Cl)c(OCCCN2CCCCC2)c(Br)c1,"inconclusive: 8.91 µM [inhibitor, partial curve, poor fit]"
12,CN1CCC(N(C)C(=O)CCc2nc3ccccc3n2-c2ccccc2)CC1,"inconclusive: 35.5 µM [inhibitor, single point]"
13,O=C(NCc1ccc(F)cc1)C(=O)c1cn(CC(=O)N2CCCC2)c2ccccc12,inactive
14,COc1cc(C(=O)N2c3ccccc3CCC2C)cc(OC)c1OC (centres undefined),"inconclusive: 22.4 µM [inhibitor, partial curve, poor fit]"
15,COCc1[nH]nc2c1[C@@H](c1sccc1C)C(C#N)=C(N)O2,inactive
16,CCOC(=O)C1(Cc2ccccc2)CCN(Cc2ccc(C)s2)CC1,"inconclusive: 12.6 µM [inhibitor, partial curve, poor fit]"
17,O=C(Oc1coc(CSc2nnc(NC(=O)c3cccs3)s2)cc1=O)c1ccccc1,"inconclusive: 12.6 µM [activator, single point]"
18,CCN(CC)c1ccc(/C=N/Nc2ccccc2)c(O)c1,"inconclusive: 13 µM [activator, partial curve, poor fit]"
19,O=C(Cc1ccccc1)NC(=S)Nc1ccc(N2CCCCC2)cc1,"inconclusive: 29.1 µM [inhibitor, single point]"
20,O=c1c(Cc2ccc(F)cc2)c(O)ccn1C1CC1,"inconclusive: 0.0891 µM [activator, full curve, poor fit]"
21,O=C(/C=C/c1ccco1)NCc1ccc2c(c1)OCO2,inactive
22,CSCCC(NS(=O)(=O)c1ccc(Cl)cc1)C(=O)OCc1cccc(Cl)c1 (centres undefined),"inconclusive: 35.5 µM [inhibitor, single point]"

row,SMILES,Potency
1,O=C(NCC(c1cccs1)N1CCOCC1)c1cc([N+](=O)[O-])cc([N+](=O)[O-])c1 (centres undefined),inactive
2,Cc1ccc(C(CC(=O)NCCCN(C)C)c2ccc(OC(C)C)cc2)cc1 (centres undefined),"inconclusive: 10 µM [inhibitor, partial curve, poor fit]"
3,COc1ccc(C2CC(c3ccccc3)=NN2C(=O)c2ccc(Cl)c([N+](=O)[O-])c2)cc1 (centres undefined),"inconclusive: 11.2 µM [inhibitor, partial curve, poor fit]"
4,COc1ccc(/C=C2\N=C(c3ccc(C)cc3)OC2=O)cc1,inactive
5,C=CCOc1c(Br)cc(CNc2ccc(NC(=O)C(C)C)c(OC)c2)cc1OC,"inconclusive: 7.3 µM [inhibitor, partial curve]"
6,CNC(=O)c1[nH]nc2c1CCc1ccccc1-2,"inconclusive: 25.1 µM [activator, single point]"
7,CC(C)CN(C(=O)c1cccc(S(=O)(=O)N2CCN(Cc3ccccc3)CC2)c1)C1CCS(=O)(=O)C1 (centres undefined),"inconclusive: 1.26 µM [inhibitor, single point]"
8,CCCCC1=NN2CCS(=O)(=O)N=C2S1,inactive
9,Oc1c(Br)cc(Br)cc1C=Nc1ccc2c(c1)OCO2,"inconclusive: 31.6 µM [inhibitor, single point]"
10,c1ccc(-c2ccc(OCCOCCn3cncn3)cc2)cc1,inactive
11,Cc1ccccc1C(=O)NNC(=O)CCCCC(=O)NNC(=O)c1ccccc1C,inactive
12,C/C(=N\Nc1ccc(Cl)c(C(=O)O)c1)c1cccs1,"inconclusive: 20 µM [activator, partial curve, poor fit]"
13,CN(C(=S)NC(=O)/C=C/c1ccc(F)cc1)C1CCCCC1,inactive
14,COc1ccc(CCNc2ncnc3sccc23)cc1OC,"inconclusive: 6.31 µM [inhibitor, partial curve, poor fit]"
15,Cc1cc2cc(CN(C(=O)C3CC3)C3CCCC3)c3nnnn3c2cc1C,"inconclusive: 20.6 µM [inhibitor, single point]"
16,CCCNC(=O)C1CCC(Cn2c(=O)c3sccc3n(CC(=O)NCc3cccc(OC)c3OC)c2=O)CC1 (centres undefined),inactive
17,Cc1cc(C)nc(N/N=C/c2ccccc2OCc2ccc([N+](=O)[O-])cc2)n1,"inconclusive: 5.62 µM [inhibitor, single point]"
18,O=C(CSc1nnc(-c2ccccc2)n1-c1ccccc1)c1ccc[nH]1,"inconclusive: 7.94 µM [inhibitor, partial curve]"
19,O=C(C1CCCN1S(=O)(=O)c1ccc(Cl)cc1)N1CCOCC1 (centres undefined),inactive
20,O=C(c1ccc2c(c1)N(Cc1ccccc1)C(=O)c1ccccc1S2(=O)=O)N1CCN(Cc2ccccc2)CC1,"inconclusive: 35.5 µM [inhibitor, single point]"
21,Cc1ccc2occ(C(c3nnnn3C3CCCC3)N3CCN(C(=O)c4ccco4)CC3)c(=O)c2c1 (centres undefined),"inconclusive: 20.6 µM [inhibitor, single point]"
22,N=c1c2c(ncn1CCCO)Oc1ccc3ccccc3c1C2c1ccccc1 (centres undefined),"inconclusive: 35.5 µM [inhibitor, single point]"

# Ordered by number of heavy atoms (rising): some entries from above
row,SMILES,Potency
6,CNC(=O)c1[nH]nc2c1CCc1ccccc1-2,"inconclusive: 25.1 µM [activator, single point]"
3,Cc1ccc(NC(=O)CCC(=O)N/N=C/c2cccs2)cc1C,"inconclusive: 6.31 µM [inhibitor, single point]"
22,CSCCC(NS(=O)(=O)c1ccc(Cl)cc1)C(=O)OCc1cccc(Cl)c1 (centres undefined),"inconclusive: 35.5 µM [inhibitor, single point]"
